Results deposited as PubChem BioAssay AID1259405 (NCATS, 2018)

Screen: 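Silenced genes that increase secreted GFP made by CHO cells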 (primary screen)
System: Chinese hamster CHO-K1 ovary cells with stable secreted eGFP expression
Reagents: single siRNA against mouse genes, 0.8 pmol siRNA per well (2 µl of 400 nM stock)
Time to read-out: 3 days
Detection: 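Percent of the per-plate non-targeting control median for intracellular GFP per well by laser scanning cytometry and for cell viability by ATP luminescence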
Direction: GFP, % of control: higher = more GFP per well, higher productivity; viability (ATP), % of control: higher = more viable cells (more ATP)
Hit rule: 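Called active when intracellular GFP, relative to negative control, is at or above 120%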
This is a random part of about 50,000 deposited reagents. Over the whole deposit, about 4,000 (8%) were called active. 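Mouse siRNA library applied to hamster cells; one well for each siRNA.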 Entries without a mark were called inactive. Reagents against one gene are numbered here.

Gene | reagent no. | GFP, % of control | viability (ATP), % of control
Nwd1 | 1 | 96.5 | 88.4
Nwd1 | 2 | 54.7 | 42.6
Nwd1 | 3 | 37.4 | 53.4
Mzt1 | 1 | 91.6 | 79.3
Mzt1 | 2 | 32.8 | 58.5
Mzt1 | 3 | 112 | 49.2
Fpr1 | 1 | 99.3 | 74
Fpr1 | 2 | 110 | 77.4
Fpr1 | 3 | 74.7 | 58.2
Armc8 | 1 | 59.4 | 54.8
Armc8 | 2 | 65.8 | 80.3
Armc8 | 3 | 111 | 96.8
Sult1b1 | 1 | 116 | 112
Sult1b1 | 2 | 78 | 76.6
Sult1b1 | 3 | 105 | 98.1
Pomt2 | 1 | 125 (active) | 109
Pomt2 | 2 | 124 (active) | 113
Pomt2 | 3 | 76.9 | 81.3
Slc41a2 | 1 | 72.7 | 86.4
Slc41a2 | 2 | 51 | 60.8
Slc41a2 | 3 | 72.4 | 93.2
Chchd4 | 1 | 104 | 90
Chchd4 | 2 | 70.3 | 66.2
Chchd4 | 3 | 110 | 82.2
Elf2 | 1 | 95.5 | 59.2
Elf2 | 2 | 80 | 69.8
Elf2 | 3 | 138 (active) | 108
Or51f5 | 1 | 57.1 | 42.2
Or51f5 | 2 | 81.8 | 68.6
Or51f5 | 3 | 109 | 119
Mapk1ip1 | 1 | 85.2 | 85.7
Mapk1ip1 | 2 | 49.8 | 36.3
Mapk1ip1 | 3 | 54.1 | 52.1
Prss39 | 1 | 48.7 | 71.1
Prss39 | 2 | 62.6 | 72.3
Prss39 | 3 | 85.6 | 90
Mtss1 | 1 | 78.6 | 78.3
Mtss1 | 2 | 50.9 | 90
Mtss1 | 3 | 93.4 | 68.8
Or5p70 | 1 | 76.5 | 67.7
Or5p70 | 2 | 96.8 | 77.8
Or5p70 | 3 | 86.8 | 66.7
Ca3 | 1 | 85.7 | 103
Ca3 | 2 | 56.4 | 68.4
Hipk3 | 1 | 87.4 | 67.1
Kcnk2 | 1 | 117 | 107
Kcnk2 | 2 | 67.2 | 80.3
Kcnk2 | 3 | 94.8 | 63.8
Plscr2 | 1 | 55.5 | 48
Plscr2 | 2 | 77 | 97.8
Plscr2 | 3 | 72.3 | 63.1
Tcirg1 | 1 | 96.4 | 101
Tcirg1 | 2 | 59.4 | 74
Tcirg1 | 3 | 72.3 | 73
Or8b36 | 1 | 82.4 | 87.8
Or8b36 | 2 | 81.2 | 72.8
Or8b36 | 3 | 127 (active) | 109
Scn1a | 1 | 57.9 | 74.5
Scn1a | 2 | 4.5 | 4.91
Scn1a | 3 | 80.8 | 50.5
Recql5 | 1 | 79.4 | 73.7
Recql5 | 2 | 144 (active) | 153
Recql5 | 3 | 53.4 | 68.5
Or5p66 | 1 | 99.7 | 67.1
Or5p66 | 2 | 75.5 | 62.5
Or5p66 | 3 | 64.1 | 24.1
Rtp4 | 1 | 86.9 | 74.9
Rtp4 | 2 | 70.2 | 95.5
Rtp4 | 3 | 98.8 | 126
Zbtb21 | 1 | 99.9 | 92.8
Zbtb21 | 2 | 110 | 80.1
Zbtb21 | 3 | 69.1 | 80
Igsf6 | 1 | 89.1 | 94.1
Igsf6 | 2 | 135 (active) | 63.7
Igsf6 | 3 | 91.6 | 92.5
E130114P18Rik | 1 | 56.5 | 73.4
E130114P18Rik | 2 | 82.4 | 78.8
E130114P18Rik | 3 | 80 | 42.9
Pold4 | 1 | 87.3 | 87.6
Pold4 | 2 | 68.8 | 67.5
Or5p55 | 1 | 87.2 | 83.8
Or5p55 | 2 | 74 | 75.4
Or5p55 | 3 | 51.5 | 53.6
Tnfrsf26 | 1 | 110 | 111
Tnfrsf26 | 2 | 98.6 | 113
Tnfrsf26 | 3 | 121 (active) | 104

A few values from the list:
For “viability (ATP), % of control”, Or5p70 #2 shows 77.8
For “viability (ATP), % of control”, Mtss1 #3 has 68.8
Entry of Zbtb21 #1 in “viability (ATP), % of control”: 92.8
For “GFP, % of control”, Or5p70 #1 is entered as 76.5
For “viability (ATP), % of control”, Zbtb21 #3 has 80
Ca3 #2, GFP, % of control → 56.4
